Measurements taken from ChEMBL document CHEMBL5674883, “The Heterochromatin Landscape in Migrating Cells and the Importance of H3K27me3 for Associated Transcriptome Alterations” (Cells, 2018).
The source gives many values for each of these; only a part stands here.

Amino acid sequences for entries named in this document (tags omitted).
UniProt Q61188, whole entry: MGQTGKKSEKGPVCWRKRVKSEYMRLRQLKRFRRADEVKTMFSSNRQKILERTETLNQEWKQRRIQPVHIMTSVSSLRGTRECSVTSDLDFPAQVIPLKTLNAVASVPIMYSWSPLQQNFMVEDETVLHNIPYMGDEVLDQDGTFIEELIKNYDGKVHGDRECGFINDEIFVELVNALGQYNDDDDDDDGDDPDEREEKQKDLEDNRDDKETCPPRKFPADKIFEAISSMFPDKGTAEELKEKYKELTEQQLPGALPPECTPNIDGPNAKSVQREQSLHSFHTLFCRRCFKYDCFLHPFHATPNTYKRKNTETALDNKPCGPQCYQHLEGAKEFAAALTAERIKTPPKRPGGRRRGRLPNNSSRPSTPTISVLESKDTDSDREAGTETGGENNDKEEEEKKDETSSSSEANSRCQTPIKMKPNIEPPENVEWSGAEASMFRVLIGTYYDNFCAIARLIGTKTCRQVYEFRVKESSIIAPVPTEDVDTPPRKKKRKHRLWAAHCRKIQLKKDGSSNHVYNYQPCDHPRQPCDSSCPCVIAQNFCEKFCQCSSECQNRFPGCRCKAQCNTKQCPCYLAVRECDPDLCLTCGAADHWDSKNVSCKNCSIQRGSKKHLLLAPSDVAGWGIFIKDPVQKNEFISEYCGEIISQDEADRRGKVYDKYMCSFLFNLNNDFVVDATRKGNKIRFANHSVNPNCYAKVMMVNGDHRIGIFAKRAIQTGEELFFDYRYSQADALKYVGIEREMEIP

Assays:
Assay type in all cases: cell-based
[1] = target: T1, RNA polymerase II (Mus musculus) (UniProt P08775+Q8CFI7+P97760+A0A3Q4L2S8+Q80UW8+P61219+P62488+Q923G2+P60898+O08740+Q63871+P62876); assay: Inhibition of RNA polymerase II in mouse B16-F1 migrating cells assessed as fold change in 2310039H08Rik-RNA stability at 0.1 mM measured by ChIP-seq analysis relative to control cells
[2] = target: T1, RNA polymerase II (Mus musculus); assay: Inhibition of RNA polymerase II in mouse B16-F1 migrating cells assessed as fold change in Gapdh-RNA stability at 0.1 mM measured by ChIP-seq analysis relative to control cells
[3] = target: T1, RNA polymerase II (Mus musculus); assay: Inhibition of RNA polymerase II in mouse B16-F1 migrating cells assessed as fold change in Zfyve19-RNA stability at 0.1 mM measured by ChIP-seq analysis relative to control cells
[4] = target: T1, RNA polymerase II (Mus musculus); assay: Inhibition of RNA polymerase II in mouse B16-F1 migrating cells assessed as fold change in B3gat3-RNA stability at 0.1 mM measured by ChIP-seq analysis relative to control cells
[5] = target: T1, RNA polymerase II (Mus musculus); assay: Inhibition of RNA polymerase II in mouse B16-F1 migrating cells assessed as fold change in Gemin7-RNA stability at 0.1 mM measured by ChIP-seq analysis relative to control cells
[6] = target: T1, RNA polymerase II (Mus musculus); assay: Inhibition of RNA polymerase II in mouse B16-F1 migrating cells assessed as fold change in Vamp2-RNA stability at 0.1 mM measured by ChIP-seq analysis relative to control cells
[7] = target: T1, RNA polymerase II (Mus musculus); assay: Inhibition of RNA polymerase II in mouse B16-F1 migrating cells assessed as fold change in Arhgdia-RNA stability at 0.1 mM measured by ChIP-seq analysis relative to control cells
[8] = target: T1, RNA polymerase II (Mus musculus); assay: Inhibition of RNA polymerase II in mouse B16-F1 migrating cells assessed as fold change in Atp6v0a1-RNA stability at 0.1 mM measured by ChIP-seq analysis relative to control cells
[9] = target: T1, RNA polymerase II (Mus musculus); assay: Inhibition of RNA polymerase II in mouse B16-F1 migrating cells assessed as fold change in Stub1-RNA stability at 0.1 mM measured by ChIP-seq analysis relative to control cells
[10] = target: T1, RNA polymerase II (Mus musculus); assay: Inhibition of RNA polymerase II in mouse B16-F1 migrating cells assessed as fold change in Smim7-RNA stability at 0.1 mM measured by ChIP-seq analysis relative to control cells
[11] = target: T1, RNA polymerase II (Mus musculus); assay: Inhibition of RNA polymerase II in mouse B16-F1 migrating cells assessed as fold change in Plcb4-RNA stability at 0.1 mM measured by ChIP-seq analysis relative to control cells
[12] = target: T1, RNA polymerase II (Mus musculus); assay: Inhibition of RNA polymerase II in mouse B16-F1 migrating cells assessed as fold change in Fbxo3-RNA stability at 0.1 mM measured by ChIP-seq analysis relative to control cells
[13] = target: T1, RNA polymerase II (Mus musculus); assay: Inhibition of RNA polymerase II in mouse B16-F1 migrating cells assessed as fold change in Ttll4-RNA stability at 0.1 mM measured by ChIP-seq analysis relative to control cells
[14] = target: T1, RNA polymerase II (Mus musculus); assay: Inhibition of RNA polymerase II in mouse B16-F1 migrating cells assessed as fold change in Tfpi-RNA stability at 0.1 mM measured by ChIP-seq analysis relative to control cells
[15] = target: T1, RNA polymerase II (Mus musculus); assay: Inhibition of RNA polymerase II in mouse B16-F1 migrating cells assessed as fold change in Nucks1-RNA stability at 0.1 mM measured by ChIP-seq analysis relative to control cells
[16] = target: T1, RNA polymerase II (Mus musculus); assay: Inhibition of RNA polymerase II in mouse B16-F1 migrating cells assessed as fold change in Casd1-RNA stability at 0.1 mM measured by ChIP-seq analysis relative to control cells
[17] = target: T1, RNA polymerase II (Mus musculus); assay: Inhibition of RNA polymerase II in mouse B16-F1 migrating cells assessed as fold change in Cnot6l-RNA stability at 0.1 mM measured by ChIP-seq analysis relative to control cells
[18] = target: T1, RNA polymerase II (Mus musculus); assay: Inhibition of RNA polymerase II in mouse B16-F1 migrating cells assessed as fold change in Dhx36-RNA stability at 0.1 mM measured by ChIP-seq analysis relative to control cells
[19] = target: T1, RNA polymerase II (Mus musculus); assay: Inhibition of RNA polymerase II in mouse B16-F1 migrating cells assessed as fold change in Golim4-RNA stability at 0.1 mM measured by ChIP-seq analysis relative to control cells
[20] = target: T1, RNA polymerase II (Mus musculus); assay: Inhibition of RNA polymerase II in mouse B16-F1 migrating cells assessed as fold change in Wdr82-RNA stability at 0.1 mM measured by ChIP-seq analysis relative to control cells
[21] = target: T1, RNA polymerase II (Mus musculus); assay: Inhibition of RNA polymerase II in mouse B16-F1 migrating cells assessed as fold change in Dse-RNA stability at 0.1 mM measured by ChIP-seq analysis relative to control cells
[22] = target: T1, RNA polymerase II (Mus musculus); assay: Inhibition of RNA polymerase II in mouse B16-F1 migrating cells assessed as fold change in Caap1-RNA stability at 0.1 mM measured by ChIP-seq analysis relative to control cells
[23] = target: T1, RNA polymerase II (Mus musculus); assay: Inhibition of RNA polymerase II in mouse B16-F1 migrating cells assessed as fold change in Sltm-RNA stability at 0.1 mM measured by ChIP-seq analysis relative to control cells
[24] = target: T1, RNA polymerase II (Mus musculus); assay: Inhibition of RNA polymerase II in mouse B16-F1 migrating cells assessed as fold change in Postn-RNA stability at 0.1 mM measured by ChIP-seq analysis relative to control cells
[25] = target: Histone-lysine N-methyltransferase EZH2 (Mus musculus) (UniProt Q61188); assay: Inhibition of EZH2 in mouse B16-F1 migrating cells assessed as fold change in H3K27me3-dependent regulated Spry2-mRNA expression at 3 uM measured by ChIP-seq analysis relative to control cells
[26] = target: Histone-lysine N-methyltransferase EZH2 (Mus musculus) (UniProt Q61188); assay: Inhibition of EZH2 in mouse B16-F1 migrating cells assessed as fold change in H3K27me3-dependent regulated Zfp36-mRNA expression at 3 uM measured by ChIP-seq analysis relative to control cells
[27] = target: Histone-lysine N-methyltransferase EZH2 (Mus musculus) (UniProt Q61188); assay: Inhibition of EZH2 in mouse B16-F1 migrating cells assessed as fold change in H3K27me3-buffered regulated Insig1-mRNA expression at 3 uM measured by ChIP-seq analysis relative to control cells
[28] = target: Histone-lysine N-methyltransferase EZH2 (Mus musculus) (UniProt Q61188); assay: Inhibition of EZH2 in mouse B16-F1 migrating cells assessed as fold change in H3K27me3-buffered regulated Espl1-mRNA expression at 3 uM measured by ChIP-seq analysis relative to control cells
[29] = target: Histone-lysine N-methyltransferase EZH2 (Mus musculus) (UniProt Q61188); assay: Inhibition of EZH2 in mouse B16-F1 migrating cells assessed as fold change in H3K27me3-buffered regulated Mllt10-mRNA expression at 3 uM measured by ChIP-seq analysis relative to control cells
[30] = target: Histone-lysine N-methyltransferase EZH2 (Mus musculus) (UniProt Q61188); assay: Inhibition of EZH2 in mouse B16-F1 migrating cells assessed as fold change in H3K27me3-buffered regulated Rad51ap1-mRNA expression at 3 uM measured by ChIP-seq analysis relative to control cells
[31] = target: Histone-lysine N-methyltransferase EZH2 (Mus musculus) (UniProt Q61188); assay: Inhibition of EZH2 in mouse B16-F1 migrating cells assessed as fold change in H3K27me3-buffered regulated Ccng2-mRNA expression at 3 uM measured by ChIP-seq analysis relative to control cells

In the case of `OC[C@H]1O[C@@H](n2cnc3cc(Cl)c(Cl)cc32)[C@H](O)[C@@H]1O`, the log2FC [1] is reported as 0.64, the log2FC [2] is reported as 0.6 and the log2FC [3] is reported as 0.55. It also gave a log2FC [4] of 0.5, a log2FC [5] of 0.46 and a log2FC [6] of 0.45. It also gave a log2FC [7] of 0.45, a log2FC [8] of 0.4 and a log2FC [9] of 0.38. It also gave a log2FC [10] of 0.38, a log2FC [11] of -0.46 and a log2FC [12] of -0.46. The log2FC [13] was -0.48, the log2FC [14] was -0.5 and the log2FC [15] was -0.58. The log2FC [16] was -0.59, the log2FC [17] was -0.6 and the log2FC [18] was -0.63. The log2FC [19] was -0.66, the log2FC [20] was -0.72 and the log2FC [21] was -0.73. The log2FC [22] was -0.75, the log2FC [23] was -0.86 and the log2FC [24] was -0.89.

For `CCCc1cc(C)[nH]c(=O)c1CNC(=O)c1cc(-c2ccnc(N3CCN(C)CC3)c2)cc2c1cnn2C(C)C`, the log2FC [25] was 0.2, the log2FC [26] was 0.09 and the log2FC [27] was 0.64. It also gave a log2FC [28] of -0.4, a log2FC [29] of -0.46 and a log2FC [30] of -0.49. For the same molecule, the log2FC [31] was -0.72.
